In patent US20160046620A1, “METHODS OF CONTROLLING NEONICOTINOID RESISTANT PESTS” (SYNGENTA PARTICIPATIONS AG, priority 2013, published 2016):
Some entries share one result that the patent states for a list of compounds.

System: Q-biotype (Neonicotinoid resistant) strain of Bemisia tabaci
Assay: Control of neonicotinoid resistant tobacco whitefly, preventive egg lay bioassay on cotton / dose-response bioassay
Assay type: in vivo
Conditions: for control of the Q-biotype (Neonicotinoid resistant) strain of Bemisia tabaci: 200 ppm; for resistance factor: Q-biotype resistant vs standard susceptible strain of Bemisia tabaci

SMILES | control of the Q-biotype (Neonicotinoid resistant) strain of Bemisia tabaci | resistance factor
N#Cc1cncc(C2(C#N)CC3C=CC(C2)N3CC=CCl)c1 (mixture of isomers) [Compound 2.182] | at least 80% | ≤ 20
COC(=O)[C@@H](C)N1[C@@H]2CC[C@H]1C[C@](C#N)(c1cncc(C#N)c1)C2 [Compound 1.011] | at least 80% | ≤ 20
COC(=O)C(C)N1[C@@H]2CC[C@H]1C[C@](C#N)(c1cncc(C#N)c1)C2 (some centres unmarked) [Compound 1.013] | at least 80% | ≤ 20
C#CC(C)N1[C@@H]2CC[C@H]1C[C@](C#N)(c1cncc(C#N)c1)C2 (some centres unmarked) [Compound 1.099] | at least 80% | ≤ 20
CCOC(=O)C(C)N1[C@@H]2CC[C@H]1C[C@](C#N)(c1cncc(C#N)c1)C2 (some centres unmarked) [Compound 1.103] | at least 80% | ≤ 20
N#Cc1cncc([C@]2(C#N)C[C@H]3CC[C@@H](C2)N3CCCC(F)(F)F)c1 [Compound 1.108] | at least 80% | ≤ 20
C#CC(C)(C)N1[C@@H]2CC[C@H]1C[C@](C#N)(c1cncc(C#N)c1)C2 [Compound 1.115] | at least 80% | ≤ 20
CC(=O)C(C)N1[C@@H]2CC[C@H]1C[C@](C#N)(c1cncc(C#N)c1)C2 (some centres unmarked) [Compound 1.116] | at least 80% | ≤ 20
COCCN1[C@@H]2CC[C@H]1C[C@](C#N)(c1cncc(C#N)c1)C2 [Compound 1.117] | at least 80% | ≤ 20
C=C(C)CN1[C@@H]2CC[C@H]1C[C@](C#N)(c1cncc(C#N)c1)C2 [Compound 1.119] | at least 80% | ≤ 20
CSCCN1[C@@H]2CC[C@H]1C[C@](C#N)(c1cncc(C#N)c1)C2 [Compound 1.133, (1S,3S,5R)-3-(5-cyano-pyridin-3-yl)-8-(2-methylthioethyl)-8-aza-bicyclo[3.2.1]octane-3-carbonitrile] | at least 80% | ≤ 20
C=C(Cl)CN1[C@@H]2CC[C@H]1C[C@](C#N)(c1cncc(C#N)c1)C2 [Compound 1.151] | at least 80% | ≤ 20
C=C(F)CN1[C@@H]2CC[C@H]1C[C@](C#N)(c1cncc(C#N)c1)C2 [Compound 1.154] | at least 80% | ≤ 20
N#Cc1cncc([C@]2(C#N)C[C@H]3CC[C@@H](C2)N3CC2CCCO2)c1 (some centres unmarked) [Compound 1.157] | at least 80% | ≤ 20
C[Si](C)(C)OC(N1[C@@H]2CC[C@H]1C[C@](C#N)(c1cncc(C#N)c1)C2)C(F)(F)F (some centres unmarked) [Compound 1.158] | at least 80% | ≤ 20
CC(C)N1[C@@H]2CC[C@H]1C[C@](C#N)(c1cncc(C#N)c1)C2 [Compound 1.174] | at least 80% | ≤ 20
C=C(Br)CN1[C@@H]2CC[C@H]1C[C@](C#N)(c1cncc(C#N)c1)C2 [Compound 1.184] | at least 80% | ≤ 20
N#Cc1cncc([C@]2(C#N)C[C@H]3CC[C@@H](C2)N3CC2CCC2)c1 [Compound 1.185] | at least 80% | ≤ 20
C#CCCN1[C@@H]2CC[C@H]1C[C@](C#N)(c1cncc(C#N)c1)C2 [Compound 1.186] | at least 80% | ≤ 20
